# About 17,000 (5.5%) of roughly 310,000 compounds were called active. The inconclusive results got no clear call from the source; some entries with a clear call stand among them for comparison. Calls follow the shape of the dose curve; as a rule, active = well fitted inhibition curve with a large enough effect; inconclusive = small, poorly fitted or top-dose-only effect, or effect the other way; inactive = no such curve, though single readings can be large or run the other way. A potency beside an inconclusive call is a rough fit, not a confirmed value.
# Chains of the proteins cited; added tags and fusions are not shown. Lines headed by an entry give the natural chain unless they say otherwise; changes in a name come on top.
# UniProt P51450: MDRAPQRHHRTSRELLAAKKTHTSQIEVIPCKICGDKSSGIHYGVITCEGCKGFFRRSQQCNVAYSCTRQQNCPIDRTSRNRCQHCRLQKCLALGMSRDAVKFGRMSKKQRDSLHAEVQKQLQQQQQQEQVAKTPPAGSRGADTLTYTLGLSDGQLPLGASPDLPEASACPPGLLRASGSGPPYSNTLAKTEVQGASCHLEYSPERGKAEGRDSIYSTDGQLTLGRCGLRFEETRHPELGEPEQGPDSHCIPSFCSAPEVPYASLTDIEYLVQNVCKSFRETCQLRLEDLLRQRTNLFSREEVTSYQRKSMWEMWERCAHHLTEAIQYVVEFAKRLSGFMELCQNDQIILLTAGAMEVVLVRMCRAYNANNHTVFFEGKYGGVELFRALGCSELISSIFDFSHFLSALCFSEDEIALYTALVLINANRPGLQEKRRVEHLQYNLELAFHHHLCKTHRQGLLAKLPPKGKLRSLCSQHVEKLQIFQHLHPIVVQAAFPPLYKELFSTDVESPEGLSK
# Target: Nuclear receptor ROR-gamma (Mus musculus) (UniProt P51450)
# Experiment: qHTS for inhibitors of ROR gamma transcriptional activity; also: nearly all actives have a fitted effect of over 60% in size
# Conditions: Drosophila S2 Gal4-RORgamma UAS-luciferase reporter, 20 h; activity change, negative = inhibition: at 53.6 µM (top of the series)
# Procedure, shortened: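 ROR gamma transcriptional activity was tracked as Gal4-UAS luciferase output in stably transfected Drosophila Schneider cells, with compound added 1 hr before 700 uM copper sulfate induction and a 20 hr ambient-temperature incubation.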
# % is scaled to controls: 0 for no effect and ±100 for the full control effect; potency is read from the fitted curve at half-maximal effect.
SMILES,Potency,"activity change, negative = inhibition"
CC(=O)c1c(C)[nH]c(C(=O)OCc2cccc(Cl)c2)c1C,"inconclusive: 20 µM [activator, single point]",
COc1c(O)cccc1/C=N/NC(=O)Cn1ccnc1C,"inconclusive: 22.4 µM [inhibitor, partial curve, poor fit]",
CC(C)Oc1cccc(C(=O)Nc2ncn[nH]2)c1,active: 15.8 µM,
COc1ccccc1-c1cc(SC)c(C#N)c(=O)o1,"inconclusive: 35.5 µM [inhibitor, single point]",
COc1ccccc1N1CCN(C(=O)c2cccc(N3C(=O)C4C5C=CC(C5)C4C3=O)c2)CC1 (stereo not drawn),,inactive: 7.24%
N=C(N)SCc1ncccc1O,,inactive: 1.77%
Cc1ccccc1Sc1ncnc2onc(C)c12,active: 7.08 µM,
CC(C)c1ccccc1NC(=S)NCc1nc2ccccc2[nH]1,"inconclusive: 11.2 µM [inhibitor, partial curve, poor fit]",
COc1ccc(C(=O)NC(=S)NCc2cccnc2)cc1Cl,active: 11.2 µM,
COC(=O)c1ccccc1NC(=O)c1ccc2nccnc2c1,,inactive: 27.7%
Cc1ccnc(SCc2cn3c(C)cccc3n2)n1,"inconclusive: 20 µM [inhibitor, single point]",
O=C(NC(=S)Nc1cccnc1)c1cc2ccccc2o1,"inconclusive: 35.5 µM [inhibitor, single point]",
Cc1csc(NC(=O)CCc2nc3ccccc3s2)n1,"inconclusive: 11.2 µM [activator, partial curve]",
NS(=O)(=O)c1cc2c(cc1Cl)NC(c1ccccc1OCC(=O)O)NS2(=O)=O (stereo not drawn),,inactive: -3.54%
C/C(=N\NC(=O)C1(C)CC1(Br)Br)c1cccc(NC(=O)C2CCC2)c1 (stereo not drawn),"inconclusive: 10 µM [activator, partial curve]",
COc1cccc(NC(=O)Nc2ccc(C)c(Cl)c2)c1,,inactive: -0.559%
O=C(NCc1ccncc1)c1cc2ccccc2nc1Cl,,inactive: 21.6%
S=c1[nH]ncn1/N=C/c1ccc(N2CCOCC2)cc1,"inconclusive: 14.1 µM [inhibitor, single point]",
O=S(=O)(Nc1ccc2nc(-c3ccco3)[nH]c2c1)c1ccccc1,"inconclusive: 12.6 µM [activator, partial curve]",
CCCCC1OC2(C)OC(=N)C1(C#N)C(C#N)(C#N)C2c1ccccc1 (stereo not drawn),,inactive: -14.1%
CC(=O)Nc1ccc(NC(=O)c2nc(S(=O)(=O)Cc3cccc(C)c3)ncc2Cl)cc1,active: 6.31 µM,
Cc1ccc(S(=O)(=O)c2cc(OC(=O)c3ccco3)ccc2OC(=O)c2ccco2)cc1,,inactive: 18.5%
CCOc1ccc(C(=O)NC(=S)N(Cc2ccccc2)Cc2ccccc2)cc1,active: 0.282 µM,
CCOC(=O)c1c(NC(=S)NC(=O)c2ccc(Cn3cc(Cl)cn3)o2)sc2c1CCC(C)C2 (stereo not drawn),"inconclusive: 1.12 µM [inhibitor, full curve, poor fit]",

SMILES,Potency,"activity change, negative = inhibition"
Cc1cc(C(=O)N(C)CC2CCCN(CCc3ccc(F)cc3)C2)c(C)o1 (stereo not drawn),"inconclusive: 2.82 µM [inhibitor, single point]",
CN(Cc1c(C(=O)N/N=C/c2cccs2)nnn1-c1nonc1N)c1ccccc1,active: 5.62 µM,
CNc1oc(/C=C/c2cccc(OC)c2)nc1C#N,,inactive: 36.1%
COc1cc(/C=C2\C(=O)N(CCC#N)N=C2C)c(Br)cc1OC(C)C,"inconclusive: 5.01 µM [inhibitor, single point]",
CC(Sc1nnc(Cc2cccs2)n1C1CCCCC1)C(=O)NCc1ccco1 (stereo not drawn),"inconclusive: 12.6 µM [activator, single point]",
CN(C)c1ncc2nc(-c3cc(F)cc(F)c3)c(=O)n(C[C@H]3CCCO3)c2n1,,inactive: 2.46%
COc1ccc(N2CCN(C(=S)Nc3ccc(F)cc3)CC2)cc1,,inactive: -1.59%
O=C(CN(Cc1ccccc1)S(=O)(=O)c1ccccc1)N/N=C/c1ccc2c(c1)OCO2,,inactive: 36.6%
O=[N+]([O-])c1c(NCCO)cc(Sc2nc3ccccc3s2)c2nonc12,active: 2.82 µM,
O=S(=O)(c1ccc2c(c1)OCO2)N1CCN(c2nnnn2-c2ccccc2)CC1,"inconclusive: 5.62 µM [inhibitor, single point]",
N#Cc1c(-c2ccccc2)cc(-c2ccc(O)cc2)nc1N,"inconclusive: 25.1 µM [activator, single point]",
Fc1ccc(NC(=S)N2CCN(c3cccc(C(F)(F)F)c3)CC2)cc1,"inconclusive: 35.5 µM [inhibitor, single point]",
c1cc2c(cc1C1CCCCC1)c1c3n2CCCNC3CCC1 (stereo not drawn),"inconclusive: 14.1 µM [inhibitor, partial curve, poor fit]",
Cc1ccccc1C(=O)NC(=S)N(C)C1CCCCC1,"inconclusive: 2.51 µM [inhibitor, full curve, poor fit]",
CCOc1ccc(NCc2nc3ccccc3n2CCOc2ccccc2)cc1,"inconclusive: 35.5 µM [inhibitor, single point]",
Cc1cccc(OCCCCc2c(C)n[nH]c2C)c1,"inconclusive: 35.5 µM [inhibitor, single point]",
Cc1nn(Cc2c(Cl)cccc2Cl)c(C)c1NC(=O)CCCn1nc([N+](=O)[O-])c(Cl)c1C,"inconclusive: 12.6 µM [activator, single point]",
O=C(CNc1cccc([N+](=O)[O-])c1)N/N=C/c1ccc(F)cc1,"inconclusive: 17.8 µM [activator, single point]",
CCOC(=O)c1c(S(=O)(=O)NCC(=O)N2CCN(c3ccccc3)CC2)c(C)n(C)c1C,,inactive: 1.63%
O=C(NCc1cc(C(F)(F)F)cc(C(F)(F)F)c1)C1CC(c2ccccc2[N+](=O)[O-])=NO1 (stereo not drawn),"inconclusive: 7.08 µM [activator, partial curve]",
CCOc1cc(/C=N/Nc2cc(C)nc(-n3nc(C)cc3C)n2)ccc1O,"inconclusive: 0.355 µM [inhibitor, full curve, poor fit]",
COCc1cc(C)nc2sc(C(=O)OC(C)C)c(N)c12,,inactive: -96.5%
Cc1cc(C(=O)COC(=O)c2ccccc2Br)c(C)n1CC1CCCO1 (stereo not drawn),active: 14.1 µM,
Cc1ccc(Oc2nc3ccccn3c(=O)c2/C=C(\C#N)C(=O)NC2CCS(=O)(=O)C2)cc1 (stereo not drawn),"inconclusive: 12.6 µM [inhibitor, single point]",

# Of the compounds above, these contain bromine.
SMILES,Potency,"activity change, negative = inhibition"
C/C(=N\NC(=O)C1(C)CC1(Br)Br)c1cccc(NC(=O)C2CCC2)c1 (stereo not drawn),"inconclusive: 10 µM [activator, partial curve]",
COc1cc(/C=C2\C(=O)N(CCC#N)N=C2C)c(Br)cc1OC(C)C,"inconclusive: 5.01 µM [inhibitor, single point]",
Cc1cc(C(=O)COC(=O)c2ccccc2Br)c(C)n1CC1CCCO1 (stereo not drawn),active: 14.1 µM,
